Laboratory results published in publication PMC7356634.
No constants are given. Whether binding was seen depends on the method and setting. Binding seen in cells or lysates may run through a third protein. Tags and fused reporters may be left off the sequences shown.

Assays:
[1] = target: C-terminally myc/His tagged M76 (MCMV, Smith strain); assay: co-IP; HEK293T transfected with one myc-tagged protein; IP with anti-myc antibody and protein A agarose in IP lysis buffer (20 mM Tris-HCl pH 7.5, 150 mM NaCl, 1% IGEPAL CA-630, 0.25% sodium deoxycholate, 0.1% SDS), 7 washes; blot for endogenous OGT
[2] = target: myc-tagged M35 (pcDNA4-M35-myc/His) (murine CMV (MCMV)); assay: as above

B1: O-linked N-acetylglucosamine (GlcNAc) transferase (OGT), endogenous (enzyme, UniProt O15294 1-1046)
chain: MASSVGNVADSTEPTKRMLSFQGLAELAHREYQAGDFEAAERHCMQLWRQEPDNTGVLLLLSSIHFQCRRLDRSAHFSTLAIKQNPLLAEAYSNLGNVYKERGQLQEAIEHYRHALRLKPDFIDGYINLAAALVAAGDMEGAVQAYVSALQYNPDLYCVRSDLGNLLKALGRLEEAKACYLKAIETQPNFAVAWSNLGCVFNAQGEIWLAIHHFEKAVTLDPNFLDAYINLGNVLKEARIFDRAVAAYLRALSLSPNHAVVHGNLACVYYEQGLIDLAIDTYRRAIELQPHFPDAYCNLANALKEKGSVAEAEDCYNTALRLCPTHADSLNNLANIKREQGNIEEAVRLYRKALEVFPEFAAAHSNLASVLQQQGKLQEALMHYKEAIRISPTFADAYSNMGNTLKEMQDVQGALQCYTRAIQINPAFADAHSNLASIHKDSGNIPEAIASYRTALKLKPDFPDAYCNLAHCLQIVCDWTDYDERMKKLVSIVADQLEKNRLPSVHPHHSMLYPLSHGFRKAIAERHGNLCLDKINVLHKPPYEHPKDLKLSDGRLRVGYVSSDFGNHPTSHLMQSIPGMHNPDKFEVFCYALSPDDGTNFRVKVMAEANHFIDLSQIPCNGKAADRIHQDGIHILVNMNGYTKGARNELFALRPAPIQAMWLGYPGTSGALFMDYIITDQETSPAEVAEQYSEKLAYMPHTFFIGDHANMFPHLKKKAVIDFKSNGHIYDNRIVLNGIDLKAFLDSLPDVKIVKMKCPDGGDNADSSNTALNMPVIPMNTIAEAVIEMINRGQIQITINGFSISNGLATTQINNKAATGEEVPRTIIVTTRSQYGLPEDAIVYCNFNQLYKIDPSTLQMWANILKRVPNSVLWLLRFPAVGEPNIQQYAQNMGLPQNRIIFSPVAPKEEHVRRGQLADVCLDTPLCNGHTTGMDVLWAGTPMVTMPGETLASRVAASQLTCLGCLELIAKNRQEYEDIAVKLGTDLEYLKKVRGKVWKQRISSPLFNTKQYTMELERLYLQMWEHYAAGNKPDHMIKPVEVTESA
- binding [1]: no binding
- binding [2]: no binding
